Source: PubChem BioAssay AID1259424 (University of Nebraska Medical Center, 2018)
The deposit covers about 14,000 reagents; below is a random part of them. 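Higher correlation or smaller distance means closer resemblance to KSR1 loss; control wells, including KSR1 knockdowns, recur on many plates.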 Further read-outs or replicates are left out here. Not stated in the record: the time to read-out.

Purpose: 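Find knockdowns that reproduce the expression shifts seen after KSR1 loss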 (primary screen)
Cells: human HCT116 colon cancer cells
Knock-down reagent: siRNA pool against human genes, 50 nM
Measurement: 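Six signature mRNAs by branched-DNA multiplex assay, scaled to two housekeeping genes and non-targeting median, log2; matched to mean KSR1 knockdown profile by Pearson correlation and euclidean distance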
Reading the numbers: mean correlation with KSR1 profile and KSR1 correlation: higher = expression change more like KSR1 knockdown; mean distance from KSR1 profile: higher = expression change less like KSR1 knockdown

| Gene | mean correlation with KSR1 profile | mean distance from KSR1 profile | KSR1 correlation, replicate 1 |
| --- | --- | --- | --- |
| CD209 | -0.0977 | 1.33 | -0.505 |
| TENM3 | -0.393 | 2.43 | -0.574 |
| SLC6A1 | 0.0508 | 2.3 | 0.144 |
| POLR2G | -0.179 | 4.52 | -0.214 |
| KCNH1 | -0.234 | 2.62 | -0.327 |
| FBN2 | -0.24 | 2.21 | -0.111 |
| HELZ2 | -0.448 | 1.21 | -0.114 |
| GMEB2 | 0.00767 | 2.18 | 0.215 |
| GNG2 | -0.235 | 2.02 | -0.122 |
| DLX5 | 0.171 | 1.82 | -0.0419 |
| UPF3B | -0.488 | 7.65 | -0.19 |
| H2BC8 | -0.308 | 2.73 | -0.347 |
| NIT1 | 0.234 | 1.13 | 0.3 |
| CHN2 | 0.0228 | 2.57 | 0.014 |
| LINC03124 | -0.151 | 1.82 | -0.163 |
| PAICS | -0.3 | 3.37 | -0.431 |
| STAG3L4 | 0.735 | 3.42 | 0.58 |
| RPS12 | -0.186 | 2.86 | -0.479 |
| PCDHA6 | 0.68 | 1.61 | 0.648 |
| IFT56 | 0.00544 | 2.07 | -0.114 |
| PAK2 | 0.444 | 1.96 | 0.584 |
| ARCN1 | -0.639 | 5.97 | -0.565 |

Only “mean distance from KSR1 profile”, for 6 of the entries above:
LINC03124: 1.82
PAICS: 3.37
STAG3L4: 3.42
RPS12: 2.86
PCDHA6: 1.61
IFT56: 2.07

Continued.
| Gene | mean correlation with KSR1 profile | mean distance from KSR1 profile | KSR1 correlation, replicate 1 |
| --- | --- | --- | --- |
| MGA | -0.363 | 1.09 | -0.306 |
| RPL23A | 0.398 | 4.12 | 0.387 |
| ORC5 | 0.24 | 0.938 | -0.0226 |
| RAP1B | -0.168 | 2.08 | -0.247 |
| SIGLEC6 | -0.215 | 2.08 | -0.24 |
| PABPC4 | -0.33 | 2.05 | -0.24 |
| MLF2 | -0.668 | 1.49 | -0.202 |
| RPS23 | -0.248 | 1.37 | -0.61 |
| SARS2 | -0.0645 | 2.44 | 0.0839 |
| MAP3K3 | 0.223 | 2 | 0.599 |
| GUCY1B1 | 0.457 | 1.22 | 0.386 |
| HTR1A | 0.183 | 3.23 | 0.248 |
| ZNF668 | 0.431 | 1.3 | 0.494 |
| MX1 | -0.547 | 2.43 | -0.582 |
| GMFG | 0.128 | 1.43 | 0.0869 |
| NDFIP1 | 0.269 | 1.91 | 0.117 |
| B3GALT2 | -0.0224 | 4.09 | -0.156 |
| CCZ1 | -0.503 | 2.65 | -0.385 |
| IMPA1 | 0.172 | 1.38 | 0.317 |
| STX16 | -0.0199 | 2.18 | 0.189 |
| PRADC1 | 0.313 | 1.48 | 0.423 |
| RASA1 | -0.499 | 1.68 | -0.431 |
| GDA | -0.158 | 1.64 | 0.205 |
| L3MBTL1 | 0.0218 | 1.18 | 0.13 |
| GID4 | 0.0977 | 3.46 | 0.0654 |
| MN1 | -0.676 | 1.88 | -0.619 |
| POLR1D | 0.674 | 1.25 | 0.749 |
| PLCH1 | 0.496 | 1.9 | 0.451 |
| EXOSC9 | 0.581 | 1.37 | 0.57 |
| ACMSD | -0.0978 | 2.03 | 0.0414 |
| CHRFAM7A | -0.473 | 1.8 | -0.548 |
| CALB1 | -0.398 | 2.12 | -0.471 |
| TXNL4A | -0.402 | 2.59 | -0.166 |
| ATP10B | 0.552 | 1.39 | 0.251 |
| GAS8-AS1 | 0.147 | 2.4 | 0.238 |
| TGFBI | 0.628 | 1.97 | 0.664 |
| APBA3 | -0.362 | 2.74 | -0.0364 |
| PRP4K | 0.039 | 2.5 | 0.547 |
| UPF1 | 0.43 | 1.47 | 0.381 |
| CCDC90B | 0.0245 | 2.42 | 0.12 |
| AP1S2 | -0.136 | 2.12 | -0.113 |
